Record: PubChem BioAssay AID652272 (Drosophila RNAi Screening Center, 2013)

- Test: 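Genome-wide knock-down search for components of Hedgehog signalling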 (primary screen)
- System: Drosophila clone 8 (Cl8) cells
- Reagent: long dsRNA against Drosophila genes
- Detection: 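Firefly light from a Hedgehog-responsive ptc promoter reporter and Renilla reference light, both read on a plate reader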
- Scale: firefly Hh reporter signal: higher = more ptc reporter light; Renilla reference signal: higher = more Renilla control light
- Rule for the call: 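Hit when the z-score averaged over two replicates is under -2 or over +3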
- Meaning of the calls: active = hit: reporter lowered or raised; inactive = not a hit
The deposit covers about 21,000 reagents; this is a random part of those with a known target gene and a result. In the full data, 503 (2.4%) got an active call. 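Raw plate light values, not normalised; calls rest on replicate z-scores that were not deposited; hits include reporter decreases as well as increases.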 A plus sign joins genes that one reagent is predicted to hit. Reagent sequences are not shown. Not stated in the record: the amount of reagent, the time to read-out.

Nlg3 (GeneID 40912) [SID104192269] → firefly Hh reporter signal, replicate 1: 1.99e5; Renilla reference signal, replicate 1: 4585; Call: inactive
Nlg3 (GeneID 40912) [SID104192316] → firefly Hh reporter signal, replicate 1: 55323; firefly Hh reporter signal, replicate 2: 1.14e5; Renilla reference signal, replicate 1: 2133; Renilla reference signal, replicate 2: 3392; Call: inactive
Nlg3 (GeneID 40912) [SID104192332] → firefly Hh reporter signal, replicate 1: 61969; firefly Hh reporter signal, replicate 2: 88592; Renilla reference signal, replicate 1: 2946; Renilla reference signal, replicate 2: 3620; Call: inactive
Nlg3 (GeneID 40912) [SID104192366] → firefly Hh reporter signal, replicate 1: 53600; firefly Hh reporter signal, replicate 2: 86140; Renilla reference signal, replicate 1: 956; Renilla reference signal, replicate 2: 2580; Call: inactive
GluRIIB (GeneID 33789) [SID104183127] → firefly Hh reporter signal, replicate 1: 91972; firefly Hh reporter signal, replicate 2: 69552; Renilla reference signal, replicate 1: 1990; Renilla reference signal, replicate 2: 5205; Call: inactive
CG40191 (GeneID 3354930) [SID104200833] → firefly Hh reporter signal, replicate 1: 4.80e5; firefly Hh reporter signal, replicate 2: 2.16e5; Renilla reference signal, replicate 1: 30726; Renilla reference signal, replicate 2: 4855; Call: inactive
Pdk1 (GeneID 38017) [SID104188474] → firefly Hh reporter signal, replicate 1: 71707; firefly Hh reporter signal, replicate 2: 29250; Renilla reference signal, replicate 1: 2151; Renilla reference signal, replicate 2: 1875; Call: inactive
Serinc (GeneID 39827) [SID104191088] → firefly Hh reporter signal, replicate 1: 78138; firefly Hh reporter signal, replicate 2: 51385; Renilla reference signal, replicate 1: 2984; Renilla reference signal, replicate 2: 2018; Call: inactive
Rsph3 (GeneID 38751) [SID104189488] → firefly Hh reporter signal, replicate 1: 1.40e5; firefly Hh reporter signal, replicate 2: 1.14e5; Renilla reference signal, replicate 1: 5888; Renilla reference signal, replicate 2: 4428; Call: inactive
Rsph3 (GeneID 38751) [SID104190003] → firefly Hh reporter signal, replicate 1: 65659; firefly Hh reporter signal, replicate 2: 69853; Renilla reference signal, replicate 1: 7757; Renilla reference signal, replicate 2: 5043; Call: inactive
TrissinR (GeneID 33812) [SID104182126] → firefly Hh reporter signal, replicate 1: 1.39e5; firefly Hh reporter signal, replicate 2: 75440; Renilla reference signal, replicate 1: 3088; Renilla reference signal, replicate 2: 5970; Call: inactive
TrissinR (GeneID 33812) [SID104182127] → firefly Hh reporter signal, replicate 1: 74176; firefly Hh reporter signal, replicate 2: 38880; Renilla reference signal, replicate 1: 2484; Renilla reference signal, replicate 2: 5642; Call: inactive
TrissinR (GeneID 33812) [SID104182128] → firefly Hh reporter signal, replicate 1: 82224; firefly Hh reporter signal, replicate 2: 53531; Renilla reference signal, replicate 1: 2626; Renilla reference signal, replicate 2: 4641; Call: inactive
CG13426 (GeneID 37312) [SID104186180] → firefly Hh reporter signal, replicate 1: 1.02e5; firefly Hh reporter signal, replicate 2: 52162; Renilla reference signal, replicate 1: 2470; Renilla reference signal, replicate 2: 2152; Call: inactive
CG30076 (GeneID 246438) [SID104185286] → firefly Hh reporter signal, replicate 1: 1.01e5; firefly Hh reporter signal, replicate 2: 2.47e5; Renilla reference signal, replicate 1: 2701; Renilla reference signal, replicate 2: 11072; Call: inactive
Asator (GeneID 43794) [SID104196928] → firefly Hh reporter signal, replicate 1: 91512; firefly Hh reporter signal, replicate 2: 2.13e5; Renilla reference signal, replicate 1: 3385; Renilla reference signal, replicate 2: 7874; Call: inactive
upd1 (GeneID 32813) [SID104200150] → firefly Hh reporter signal, replicate 1: 91692; firefly Hh reporter signal, replicate 2: 3.59e5; Renilla reference signal, replicate 1: 2370; Renilla reference signal, replicate 2: 14802; Call: inactive
RpL6 (GeneID 43723) [SID104194115] → firefly Hh reporter signal, replicate 1: 55251; firefly Hh reporter signal, replicate 2: 1.06e5; Renilla reference signal, replicate 1: 3996; Renilla reference signal, replicate 2: 10560; Call: active
scat (GeneID 47942) [SID104182514] → firefly Hh reporter signal, replicate 1: 63932; firefly Hh reporter signal, replicate 2: 47024; Renilla reference signal, replicate 1: 2684; Renilla reference signal, replicate 2: 1959; Call: inactive
CG7011 + Prp31 [SID104190552] → firefly Hh reporter signal, replicate 1: 1.72e5; firefly Hh reporter signal, replicate 2: 73473; Renilla reference signal, replicate 1: 7284; Renilla reference signal, replicate 2: 2845; Call: inactive
INPP5E (GeneID 39404) [SID104189515] → firefly Hh reporter signal, replicate 1: 79500; firefly Hh reporter signal, replicate 2: 42310; firefly Hh reporter signal, replicate 3: 44352; Renilla reference signal, replicate 1: 3683; Renilla reference signal, replicate 2: 2727; Call: inactive
